Experimental data from PMC4716841, “Attenuation of AMPK signaling by ROQUIN promotes T follicular helper cell formation” (eLife, 2015).
Results are given in words; binding and its absence hold for the method and conditions named. In cells and extracts the contact can be indirect. Some entries that bind do so weakly or less than the wild type. For some of these results: Tags and fused reporters may be left off the sequences shown.

Chains of the proteins cited; added tags and fusions are not shown.
UniProt Q5EG47: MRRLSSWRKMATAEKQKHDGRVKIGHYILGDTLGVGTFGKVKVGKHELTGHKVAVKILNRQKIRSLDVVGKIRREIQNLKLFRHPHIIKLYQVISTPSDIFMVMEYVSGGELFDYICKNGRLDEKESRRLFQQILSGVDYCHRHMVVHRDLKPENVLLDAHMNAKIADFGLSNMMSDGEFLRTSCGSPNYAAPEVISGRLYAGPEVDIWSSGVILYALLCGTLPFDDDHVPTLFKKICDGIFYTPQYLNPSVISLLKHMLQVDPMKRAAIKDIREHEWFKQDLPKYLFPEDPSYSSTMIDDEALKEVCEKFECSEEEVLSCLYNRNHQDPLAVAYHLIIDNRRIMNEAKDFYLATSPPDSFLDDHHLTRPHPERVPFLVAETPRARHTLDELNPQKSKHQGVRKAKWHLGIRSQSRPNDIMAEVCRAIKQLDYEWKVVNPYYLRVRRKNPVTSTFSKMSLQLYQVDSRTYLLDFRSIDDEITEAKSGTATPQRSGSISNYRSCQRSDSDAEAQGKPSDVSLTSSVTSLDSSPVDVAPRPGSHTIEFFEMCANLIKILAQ

Key:
[1] = target: AMPKα1, endogenous (mouse), catalytic α1 subunit of adenosine monophosphate-activated protein kinase (mouse (endogenous in primary C57BL/6 MEFs and EL4 cells)) (UniProt Q5EG47); experiment: proximity ligation; in situ PLA on primary C57BL/6 MEFs, endogenous proteins; goat anti-AMPKα1 (C20) with rabbit anti-ROQUIN, overnight at 4°C; resting cells or 1 mM arsenite for 1 hr; control PLA GFP:AMPKα1
[2] = target: AMPKα1, endogenous (mouse), catalytic α1 subunit of adenosine monophosphate-activated protein kinase (mouse (endogenous in primary C57BL/6 MEFs and EL4 cells)) (UniProt Q5EG47); experiment: co-IP; reciprocal co-IP of endogenous proteins from EL4 cell lysate; TNE lysis buffer (1% NP40, 150 mM NaCl, 20 mM Tris-base, 1 mM EDTA), Protein G Sepharose 12 hr
AMPKα1-GFP = AMPKα1-GFP (UniProt Q5EG47); experiment: co-IP; reciprocal co-IP from lysates of transfected HEK293T cells over-expressing both proteins; TNE lysis buffer (1% NP40, 150 mM NaCl, 20 mM Tris-base, 1 mM EDTA), Protein G Sepharose 12 hr

Binder	binding [1]	binding [2]	binding (AMPKα1-GFP)
ROQUIN, endogenous (mouse) (natural protein, UniProt Q4VGL6 1-1130, looked up, ROQUIN (ROQUIN1), encoded by Rc3h1, endogenous in mouse cells; also called ROQUIN1; encoded by Rc3h1; source: endogenous, primary C57BL/6 MEFs (in situ); endogenous, EL4 cell lysate) MPVQAPQWTDFLSCPICTQTFDETIRKPISLGCGHTVCKMCLNKLHRKACPFDQTTINTDIELLPVNSALLQLVGAQIPEQQPITLCSGVEDTKHYEEAKKCVEELALYLKPLSSARGVGLNSTTQSVLSRPMQRKLVTLVHCQLVEEEGRIRAMRAARSLGERTVTELILQHQNPQQLSSNLWAAVRARGCQFLGPAMQEEALKLVLLALEDGSALSRKVLVLFVVQRLEPRFPQASKTSIGHVVQLLYRASCFKVTKRDEDSSLMQLKEEFRTYEALRREHDSQIVQIAMEAGLRIAPDQWSSLLYGDQSHKSHMQSIIDKLQTPASFAQSVQELTIALQRTGDPANLNRLRPHLELLANIDPSPDAPPPTWEQLENGLVAVRTVVHGLVDYIQNHSKKGADQQQPPQHSKYKTYMCRDMKQRGGCPRGASCTFAHSQEELEKFRKMNKRLVPRRPLSASLGQLNEVGLPSAPILSDESAVDLSNRKPPALPNGIASSGSTVTQLIPRGTDPSFDSSLKPVKLDHLSSSAPGSPPDLLESAPKSISALPVNPHPVPPRGPTDLPPMPVTKPIQMVPRGSQLYPAQQADVYYQDPRGSAPAFETAPYQQGMYYTPPPCVSRFVRPPPSAPEPGPPYLDHYSPYLQDRVINSQYGTQPQQYPPMYPAHYDGRRVYPAQSYTREEMFRESPIPIDIPSAAVPSYVPESRERYQQVEGYYPVAPHPAQIRPSYPRDPPYSRLPPPQPHPSLDELHRRRKEIMAQLEERKVISPPPFAPSPTLPPAFHPEEFLDEDLKVAGKYKANDYSQYSPWSCDTIGSYIGTKDAKPKDVVAAGSVEMMNVESKGTREQRLDLQRRAVETSDDDLIPFGDRPTVSRFGAISRTSKTLYQGAGPLQAIAPQGAPTKSINISDYSAYGAHGGWGDSPYSPHANIPPQGHFIEREKMSMAEVASHGKPLLSAEREQLRLELQQLNHQISQQTQLRGLEAVSNRLVLQREVNTLASQPQPPQLPPKWPGMISSEQLSLELHQVEREIGKRTRELSMENQCSVDMKSKLGTSKQAENGQPEPQNKIRTEDLTLTFSDVPNGSALTQENLSLLSNKTSSLNLSEDSEGGGDNNDSQRSGVVSNSAP	binds	binds	
V5-ROQUIN, full length (ROQUIN 1-1130) (protein, UniProt Q4VGL6 1-1130) MPVQAPQWTDFLSCPICTQTFDETIRKPISLGCGHTVCKMCLNKLHRKACPFDQTTINTDIELLPVNSALLQLVGAQIPEQQPITLCSGVEDTKHYEEAKKCVEELALYLKPLSSARGVGLNSTTQSVLSRPMQRKLVTLVHCQLVEEEGRIRAMRAARSLGERTVTELILQHQNPQQLSSNLWAAVRARGCQFLGPAMQEEALKLVLLALEDGSALSRKVLVLFVVQRLEPRFPQASKTSIGHVVQLLYRASCFKVTKRDEDSSLMQLKEEFRTYEALRREHDSQIVQIAMEAGLRIAPDQWSSLLYGDQSHKSHMQSIIDKLQTPASFAQSVQELTIALQRTGDPANLNRLRPHLELLANIDPSPDAPPPTWEQLENGLVAVRTVVHGLVDYIQNHSKKGADQQQPPQHSKYKTYMCRDMKQRGGCPRGASCTFAHSQEELEKFRKMNKRLVPRRPLSASLGQLNEVGLPSAPILSDESAVDLSNRKPPALPNGIASSGSTVTQLIPRGTDPSFDSSLKPVKLDHLSSSAPGSPPDLLESAPKSISALPVNPHPVPPRGPTDLPPMPVTKPIQMVPRGSQLYPAQQADVYYQDPRGSAPAFETAPYQQGMYYTPPPCVSRFVRPPPSAPEPGPPYLDHYSPYLQDRVINSQYGTQPQQYPPMYPAHYDGRRVYPAQSYTREEMFRESPIPIDIPSAAVPSYVPESRERYQQVEGYYPVAPHPAQIRPSYPRDPPYSRLPPPQPHPSLDELHRRRKEIMAQLEERKVISPPPFAPSPTLPPAFHPEEFLDEDLKVAGKYKANDYSQYSPWSCDTIGSYIGTKDAKPKDVVAAGSVEMMNVESKGTREQRLDLQRRAVETSDDDLIPFGDRPTVSRFGAISRTSKTLYQGAGPLQAIAPQGAPTKSINISDYSAYGAHGGWGDSPYSPHANIPPQGHFIEREKMSMAEVASHGKPLLSAEREQLRLELQQLNHQISQQTQLRGLEAVSNRLVLQREVNTLASQPQPPQLPPKWPGMISSEQLSLELHQVEREIGKRTRELSMENQCSVDMKSKLGTSKQAENGQPEPQNKIRTEDLTLTFSDVPNGSALTQENLSLLSNKTSSLNLSEDSEGGGDNNDSQRSGVVSNSAP			binds
V5-ROQUIN^133-1130 (RING-deleted ROQUIN) (domain or fragment, UniProt Q4VGL6 133-1130) MQRKLVTLVHCQLVEEEGRIRAMRAARSLGERTVTELILQHQNPQQLSSNLWAAVRARGCQFLGPAMQEEALKLVLLALEDGSALSRKVLVLFVVQRLEPRFPQASKTSIGHVVQLLYRASCFKVTKRDEDSSLMQLKEEFRTYEALRREHDSQIVQIAMEAGLRIAPDQWSSLLYGDQSHKSHMQSIIDKLQTPASFAQSVQELTIALQRTGDPANLNRLRPHLELLANIDPSPDAPPPTWEQLENGLVAVRTVVHGLVDYIQNHSKKGADQQQPPQHSKYKTYMCRDMKQRGGCPRGASCTFAHSQEELEKFRKMNKRLVPRRPLSASLGQLNEVGLPSAPILSDESAVDLSNRKPPALPNGIASSGSTVTQLIPRGTDPSFDSSLKPVKLDHLSSSAPGSPPDLLESAPKSISALPVNPHPVPPRGPTDLPPMPVTKPIQMVPRGSQLYPAQQADVYYQDPRGSAPAFETAPYQQGMYYTPPPCVSRFVRPPPSAPEPGPPYLDHYSPYLQDRVINSQYGTQPQQYPPMYPAHYDGRRVYPAQSYTREEMFRESPIPIDIPSAAVPSYVPESRERYQQVEGYYPVAPHPAQIRPSYPRDPPYSRLPPPQPHPSLDELHRRRKEIMAQLEERKVISPPPFAPSPTLPPAFHPEEFLDEDLKVAGKYKANDYSQYSPWSCDTIGSYIGTKDAKPKDVVAAGSVEMMNVESKGTREQRLDLQRRAVETSDDDLIPFGDRPTVSRFGAISRTSKTLYQGAGPLQAIAPQGAPTKSINISDYSAYGAHGGWGDSPYSPHANIPPQGHFIEREKMSMAEVASHGKPLLSAEREQLRLELQQLNHQISQQTQLRGLEAVSNRLVLQREVNTLASQPQPPQLPPKWPGMISSEQLSLELHQVEREIGKRTRELSMENQCSVDMKSKLGTSKQAENGQPEPQNKIRTEDLTLTFSDVPNGSALTQENLSLLSNKTSSLNLSEDSEGGGDNNDSQRSGVVSNSAP			binds
